The source of these data is patent US20060024658A1, “Composition and methods for evaluating an organism's response to alcohol or stimulants” (priority 1998, published 2006).

This series deals with SHSY-5Y cells. Put plainly: Effects of alcohols on gene expression (array hybridization intensity) in SHSY-5Y cells, Study 1. It is filed as cell-based, human. The settings on record: 100 mM ethanol. An excerpt: Hybridization strength is given a baseline of 1 and increased intensity is expressed in as a multiple of the baseline, i.e., 2-fold, 3-fold, 4-fold etc.
Column 1 lists the presumed functional class of the gene.
Columns are similar to Table 8.

In the case of `CCO` [ethanol], under “acute, 2 hr”, the “number of genes increased in expression by 1.5-fold or more: Defense/homeostasis” value is recorded as 1. For the same compound, where the note is “chronic, 72 hr”, the “number of genes increased in expression: Cell structure” value was 2 and the “number of genes increased in expression: Defense/homeostasis” value is reported as 0.
